PubChem BioAssay AID1224828 – NIAID, 2016
Test: 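Knock-downs that increase or decrease LPS-induced p65 nuclear translocation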 (primary screen). System: mouse RAW264.7 G9 macrophage reporter cells (GFP-p65, Tnf promoter-mCherry). Reagents: siRNA pool against mouse genes, 100 nM. Duration: 2 days siRNA transfection, then 40 min LPS before fixation. Treatment: LPS (Salmonella minnesota R595) at 10 ng/ml. Read-out: 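Imaged p65 nuclear translocation ratio, normalised to the plate median, converted to robust z-scores and averaged across two replicates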. Direction: p65 translocation robust z-score: higher = more nuclear NF-kappaB p65 after LPS than the plate median; nuclear/cytoplasmic p65 ratio: higher = more nuclear NF-kappaB p65. Call rule: 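Active if robust z is above 3.3 (negative regulators) or below -1.56, the Tlr4 control median (positive regulators); activity score 50 or more; control wells not called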. Calls: active = hit (p65 shift raised or lowered); inactive = no clear change.
Shown is one part, drawn at random, of about 17,000 reagents tested. Of all reagents, 762 (4.5%) were called active. 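Active calls include both raised and lowered p65 entry, mostly lowered; wells with fewer than 50 cells lack a z-score.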 Raw values vary from plate to plate and are shown uncorrected. Entries without a mark were called inactive. Reagents against one gene are numbered here. Reagent sequences are not shown.

| Target gene | reagent | p65 translocation robust z-score | nuclear/cytoplasmic p65 ratio, rep 1 | nuclear/cytoplasmic p65 ratio, rep 2 | low cell count flag |
| --- | --- | --- | --- | --- | --- |
| Pggt1b (protein geranylgeranyltransferase type I, beta subunit) | 1 | 1.23 | 1.7 | 1.54 | enough cells to score |
| Pip5kl1 (phosphatidylinositol-4-phosphate 5-kinase-like 1) | 1 | 1.01 | 1.62 | 1.5 | enough cells to score |
| 1110038F14Rik (RIKEN cDNA 1110038F14 gene) | 1 | -0.6 | 1.46 | 1.36 | enough cells to score |
| Myd88 (myeloid differentiation primary response gene 88) | 1 | -2.66 (active) | 0.985 | 1.1 | enough cells to score |
| Igfbp4 (insulin-like growth factor binding protein 4) | 1 | 0.93 | 1.48 | 1.56 | enough cells to score |
| Ppt1 (palmitoyl-protein thioesterase 1) | 1 | -0.14 | 1.47 | 1.4 | enough cells to score |
| Ppt1 (palmitoyl-protein thioesterase 1) | 2 | – | 0 | 1.41 | fewer than 50 cells per well; well left out of scoring |
| Idh3a (isocitrate dehydrogenase 3 (NAD+) alpha) | 1 | 1.27 | 1.79 | 1.55 | enough cells to score |
| Strc (stereocilin) | 1 | -0.81 | 1.44 | 1.43 | enough cells to score |
| Drc4 (dynein regulatory complex subunit 4) | 1 | 0.25 | 1.43 | 1.44 | enough cells to score |
| Brix1 (BRX1, biogenesis of ribosomes) | 1 | -0.77 | 1.32 | 1.29 | enough cells to score |
| Caps2 (calcyphosphine 2) | 1 | -0.38 | 1.54 | 1.74 | enough cells to score |
| Atp13a5 (ATPase type 13A5) | 1 | 2.09 | 1.44 | 1.82 | enough cells to score |
| Tmem165 (transmembrane protein 165) | 1 | – | 0 | 1.38 | fewer than 50 cells per well; well left out of scoring |
| Tpsb2 (tryptase beta 2) | 1 | -0.22 | 1.73 | 1.48 | enough cells to score |
| Sema3e | 1 | 0 | 1.43 | 1.55 | enough cells to score |
| Sema3e | 2 | – | 1.51 | 1.17 | fewer than 50 cells per well; well left out of scoring |
| Rarres2 (retinoic acid receptor responder (tazarotene induced) 2) | 1 | -1.12 | 1.39 | 1.33 | enough cells to score |
| Rab4b (RAB4B, member RAS oncogene family) | 1 | 0.38 | 1.6 | 1.54 | enough cells to score |
| Snf8 (SNF8, ESCRT-II complex subunit, homolog (S. cerevisiae)) | 1 | -0.42 | 1.44 | 1.79 | enough cells to score |
| Kdf1 (keratinocyte differentiation factor 1) | 1 | -1.5 | 1.13 | 1.29 | enough cells to score |
| Xrcc6 (X-ray repair cross complementing 6) | 1 | -1.17 | 1.25 | 1.25 | enough cells to score |
| Pgm2 (phosphoglucomutase 2) | 1 | – | 1.08 | 1.05 | fewer than 50 cells per well; well left out of scoring |
| F2rl1 (F2R like trypsin receptor 1) | 1 | -1.32 | 1.31 | 1.42 | enough cells to score |
| Vps26b (VPS26 retromer complex component B) | 1 | 0.39 | 1.55 | 1.37 | enough cells to score |
| Ephb6 (Eph receptor B6) | 1 | -1.26 | 1.46 | 1.25 | enough cells to score |
| Or5g26 (olfactory receptor family 5 subfamily G member 26) | 1 | 0.69 | 1.72 | 1.51 | enough cells to score |
| Or5h17 (olfactory receptor family 5 subfamily H member 17) | 1 | 0.49 | 1.68 | 1.44 | enough cells to score |
| Tor2a (torsin family 2, member A) | 1 | -0.87 | 1.4 | 1.1 | enough cells to score |
| Tdo2 (tryptophan 2,3-dioxygenase) | 1 | – | 1.34 | 0.986 | fewer than 50 cells per well; well left out of scoring |
| Cd207 (CD207 antigen) | 1 | -0.59 | 1.35 | 1.68 | enough cells to score |
| Cnot11 (CCR4-NOT transcription complex, subunit 11) | 1 | 1.13 | 1.53 | 1.91 | enough cells to score |

Quoted from above for reference:
| Target gene | reagent | p65 translocation robust z-score | nuclear/cytoplasmic p65 ratio, rep 1 | nuclear/cytoplasmic p65 ratio, rep 2 | low cell count flag |
| --- | --- | --- | --- | --- | --- |
| Tdo2 (tryptophan 2,3-dioxygenase) | 1 | – | 1.34 | 0.986 | fewer than 50 cells per well; well left out of scoring |
| Cd207 (CD207 antigen) | 1 | -0.59 | 1.35 | 1.68 | enough cells to score |
| Cnot11 (CCR4-NOT transcription complex, subunit 11) | 1 | 1.13 | 1.53 | 1.91 | enough cells to score |

The results go on:
| Target gene | reagent | p65 translocation robust z-score | nuclear/cytoplasmic p65 ratio, rep 1 | nuclear/cytoplasmic p65 ratio, rep 2 | low cell count flag |
| --- | --- | --- | --- | --- | --- |
| Dis3 | 1 | 0.84 | 1.56 | 1.52 | enough cells to score |
| Or6c211 (olfactory receptor family 6 subfamily C member 211) | 1 | – | 1.3 | 1.35 | fewer than 50 cells per well; well left out of scoring |
| Hemk1 (HemK methyltransferase family member 1) | 1 | – | 1.14 | 1.39 | fewer than 50 cells per well; well left out of scoring |
| Ifitm7 (interferon induced transmembrane protein 7) | 1 | -1.13 | 1.38 | 1.13 | enough cells to score |
| Chst12 (carbohydrate sulfotransferase 12) | 1 | 0.03 | 1.6 | 1.79 | enough cells to score |
| Ppie (peptidylprolyl isomerase E (cyclophilin E)) | 1 | – | 1.49 | 1.16 | fewer than 50 cells per well; well left out of scoring |
| Lurap1l (leucine rich adaptor protein 1-like) | 1 | 0.43 | 1.59 | 1.65 | enough cells to score |
| Nudt16l2 (nudix hydrolase 16 like 2) | 1 | – | 1.3 | 1.3 | fewer than 50 cells per well; well left out of scoring |
| Mrgpra8 (MAS-related GPR, member A8) | 1 | 0.9 | 1.93 | 1.73 | enough cells to score |
| Csnk1e (casein kinase 1, epsilon) | 1 | -1.84 (active) | 1.4 | 1.25 | enough cells to score |
| Nfs1 (nitrogen fixation gene 1 (S. cerevisiae)) | 1 | -0.95 | 1.6 | 1.48 | enough cells to score |
| Nrgn (neurogranin) | 1 | -0.25 | 1.46 | 1.34 | enough cells to score |
| Nek3 (NIMA (never in mitosis gene a)-related expressed kinase 3) | 1 | 2.44 | 1.82 | 1.68 | enough cells to score |
| Sh3tc2 (SH3 domain and tetratricopeptide repeats 2) | 1 | -0.58 | 1.49 | 1.46 | enough cells to score |
| Prg2 (proteoglycan 2, bone marrow) | 1 | 1.14 | 1.53 | 1.34 | enough cells to score |
| Itga6 (integrin alpha 6) | 1 | – | 1.49 | 1.48 | fewer than 50 cells per well; well left out of scoring |
| Mtrf1l (mitochondrial translational release factor 1-like) | 1 | -0.68 | 1.53 | 1.5 | enough cells to score |
| Mcm5 (minichromosome maintenance complex component 5) | 1 | 1.14 | 1.59 | 1.49 | enough cells to score |
| Adam7 (a disintegrin and metallopeptidase domain 7) | 1 | -1.16 | 1.48 | 1.46 | enough cells to score |
| Mpp1 (membrane protein, palmitoylated) | 1 | -0.67 | 1.7 | 1.29 | enough cells to score |
| Nek2 (NIMA (never in mitosis gene a)-related expressed kinase 2) | 1 | -1.53 | 1.36 | 1.25 | enough cells to score |
| Cadps (Ca2+-dependent secretion activator) | 1 | -0.12 | 1.61 | 1.73 | enough cells to score |
| Grpr (gastrin releasing peptide receptor) | 1 | -1.25 | 1.32 | 1.41 | enough cells to score |
| Rftn1 (raftlin lipid raft linker 1) | 1 | – | 1.34 | 1.28 | fewer than 50 cells per well; well left out of scoring |
| Ttll12 (tubulin tyrosine ligase-like family, member 12) | 1 | 2.15 | 1.72 | 1.66 | enough cells to score |
| Icam4 (intercellular adhesion molecule 4) | 1 | 0.61 | 1.6 | 1.55 | enough cells to score |
| Irf9 (interferon regulatory factor 9) | 1 | -0.43 | 1.39 | 1.35 | enough cells to score |
| Baalc (brain and acute leukemia, cytoplasmic) | 1 | -0.73 | 1.5 | 1.68 | enough cells to score |
| Bcl3 (B cell leukemia/lymphoma 3) | 1 | 0.75 | 1.68 | 1.77 | enough cells to score |
| Sh3gl2 (SH3-domain GRB2-like 2) | 1 | 0.96 | 1.69 | 1.69 | enough cells to score |
| Arl16 (ADP-ribosylation factor-like 16) | 1 | -1.62 (active) | 1.18 | 1.26 | enough cells to score |
| Mocs1 (molybdenum cofactor synthesis 1) | 1 | -1.07 | 1.24 | 1.26 | enough cells to score |
| Tbc1d4 (TBC1 domain family, member 4) | 1 | – | 1.05 | 1.3 | fewer than 50 cells per well; well left out of scoring |
| Lsm4 | 1 | 0.89 | 1.78 | 1.74 | enough cells to score |
| Twf1 (twinfilin actin binding protein 1) | 1 | 0.05 | 1.77 | 1.32 | enough cells to score |
| Or2n1d (olfactory receptor family 2 subfamily N member 1D) | 1 | -2.41 (active) | 1.23 | 1.12 | enough cells to score |
| Or51e1 (olfactory receptor family 51 subfamily E member 1) | 1 | -1.53 | 1.29 | 1.31 | enough cells to score |
| Gfer (growth factor, augmenter of liver regeneration) | 1 | -0.5 | 1.35 | 1.32 | enough cells to score |
| Csrp3 (cysteine and glycine-rich protein 3) | 1 | -0.97 | 1.34 | 1.26 | enough cells to score |
| Tas1r2 (taste receptor, type 1, member 2) | 1 | 0.63 | 1.6 | 1.68 | enough cells to score |
| Tnfaip6 (tumor necrosis factor alpha induced protein 6) | 1 | 0.48 | 1.55 | 1.62 | enough cells to score |
| Crebzf (CREB/ATF bZIP transcription factor) | 1 | 0.22 | 1.54 | 1.54 | enough cells to score |
| Krtap19-2 (keratin associated protein 19-2) | 1 | -0.34 | 1.73 | 1.44 | enough cells to score |
